Data published in paper PMC9089915.
No constants are given. Whether binding was seen depends on the method and setting. For some of these results: In cells and extracts the contact can be indirect. Some entries that bind do so weakly or less than the wild type.

By UniProt entry, the sequences of proteins in these tests, tags left out.
UniProt P63279: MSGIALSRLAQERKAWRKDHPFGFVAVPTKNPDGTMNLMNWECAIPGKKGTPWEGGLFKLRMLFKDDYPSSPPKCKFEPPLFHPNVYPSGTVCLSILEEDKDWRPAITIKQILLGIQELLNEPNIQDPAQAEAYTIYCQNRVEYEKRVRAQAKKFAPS
UniProt F5HDE4: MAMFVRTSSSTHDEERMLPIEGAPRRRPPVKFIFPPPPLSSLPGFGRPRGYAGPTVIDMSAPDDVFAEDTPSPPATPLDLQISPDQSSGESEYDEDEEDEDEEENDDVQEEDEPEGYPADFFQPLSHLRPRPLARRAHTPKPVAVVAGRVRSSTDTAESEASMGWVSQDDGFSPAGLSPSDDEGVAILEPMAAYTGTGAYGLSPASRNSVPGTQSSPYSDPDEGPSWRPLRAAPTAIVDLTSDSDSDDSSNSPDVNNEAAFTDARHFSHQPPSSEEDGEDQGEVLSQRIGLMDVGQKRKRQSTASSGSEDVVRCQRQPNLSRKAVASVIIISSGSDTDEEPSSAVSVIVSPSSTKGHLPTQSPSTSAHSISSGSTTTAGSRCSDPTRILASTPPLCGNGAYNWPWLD
UniProt P61956: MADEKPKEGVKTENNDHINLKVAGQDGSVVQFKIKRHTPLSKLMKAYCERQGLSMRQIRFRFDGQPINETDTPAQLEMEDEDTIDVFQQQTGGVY

How the values were obtained:
[1] = molecular target: endogenous ubc9 (human (endogenous in HEK293T, iSLK-BAC16 and BCBL1)) (UniProt P63279); experiment: co-IP; HEK293T transfected with Flag-tagged ORF45 or vector, 48 h; lysis in 50 mM Tris-HCl pH 7.4, 150 mM NaCl, 1% NP-40, 1 mM EDTA, 10% glycerol; IP and IB with indicated antibodies
[2] = molecular target: endogenous ubc9 (human (endogenous in HEK293T, iSLK-BAC16 and BCBL1)) (UniProt P63279); experiment: co-IP; iSLK-BAC16 (doxycycline/sodium butyrate) and BCBL1 (TPA) cells, 72 h post-induction of lytic replication; IP with specific antibodies or control IgG and protein A/G agarose, overnight at 4 °C; IB
GST-SUMO1 (human) = GST-SUMO1 (human) (UniProt P63165); experiment: pull-down; GST, GST-SUMO1 or GST-SUMO2 on Glutathione Sepharose 4B incubated with whole cell lysates of transfected HEK293T (20 mM Tris-HCl pH 7.5, 0.5% NP-40, 150 mM NaCl); 2 h at 4 °C by the methods, 30 min by the legends; IB; only the target purified
[3] = molecular target: KSHV ORF45 (full-length, GAL4 DNA-binding domain fusion, pAS2-1-ORF45) (KSHV) (UniProt F5HDE4); experiment: two-hybrid; yeast co-transformed with bait plus prey; activation of the HIS3 and ADE2 reporters by growth on -4DO plates
[4] = molecular target: GST-SUMO1^G96A/G97A (human) (UniProt P63165); experiment: pull-down; GST only, GST-SUMO1, GST-SUMO2 (or SUMO G/A mutants) on glutathione-Sepharose beads mixed with 0.5 μg purified His-tagged ORF45 in vitro for 30 min; Coomassie staining and IB with anti-ORF45; both purified
GST-SUMO2 (human) = GST-SUMO2 (human) (UniProt P61956); experiment: pull-down; GST, GST-SUMO1 or GST-SUMO2 on Glutathione Sepharose 4B incubated with whole cell lysates of transfected HEK293T (20 mM Tris-HCl pH 7.5, 0.5% NP-40, 150 mM NaCl); 2 h at 4 °C by the methods, 30 min by the legends; IB; only the target purified

## Flag-tagged KSHV ORF45 (from UniProt F5HDE4 1-407)
[1]
  binding: binds

## KSHV ORF45 expressed from the viral genome during lytic replication (from UniProt F5HDE4 1-407)
[2]
  binding: binds

## KSHV ORF45, wild type, expressed in HEK293T for the GST pull-down (from UniProt F5HDE4 1-407)
GST-SUMO1 (human)
  binding: binds

## SUMO1 (yeast two-hybrid prey) (from UniProt P63165 1-101)
[3]
  binding: binds

## purified His-tagged KSHV ORF45 protein (from UniProt F5HDE4 1-407)
[4]
  binding: binds

B1: ORF45 homologue of Epstein-Barr virus (protein, UniProt P30117 1-217)
chain: MAMFLKSRGVRSCRDRRLLSDEEEETSQSSSYTLGSQASQSIQEEDVSDTDESDYSDEDEEIDLEEEYPSDEDPSEGSDSDPSWHPSDSDESDYSESDEDEATPGSQASRSSRVSPSTQQSSGLTPTPSFSRPRTRAPPRPPAPAPVRGRASAPPRPPAPVQQSTKDKGPHRPTRPVLRGPAPRRPPPPSSPNTYNKHMMETTPPIKGNNNYNWPWL
GST-SUMO1 (human)
  binding: no binding
GST-SUMO2 (human)
  binding: no binding
